Most values lie at the floor of the assay. Slopes are relative: functional sequences can read slightly below zero. A value given as a limit tells only on which side of the number the result lay.

We go through 116 substances from the supplement of paper PMC5949888.

The test system of this series is Saccharomyces cerevisiae PS128 hsf1 delta, HSF1(1-493) fusion. The experiment in a line: growth estimate (transactivation domain function in HSF1 fusion, heat-shock survival) (a.u. (slope of normalised read count over time)); higher = stronger growth at 37°C, i.e. more transactivation activity. Particulars: library: random library. As for the experimental part: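 Random 60-nt DNA library encoding peptides of up to 20 aa, fused to the C-terminus of yeast HSF1 residues 1-493 (C-terminal TAD deleted) and expressed from the native HSF1 promoter on a CEN plasmid in hsf1-deleted S. cerevisiae PS128. Cells were selected at 37°C on -trp 5-FOA plates for 0, 2, 4, 6 and 8 days and amplicons were sequenced. Growth estimate is the slope of a robust linear fit of total-sum-normalised read counts (normalised to the first time point) over time, using at least 2 replicates. Sequences are classed functional (TAD activity) above a threshold of -0.13, set from stop-codon control sequences.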
For QIGESPKTFLAFE, the growth estimate was -0.0478.

PMRVRLPSLF: the growth estimate was < -0.25.

In the case of RPGEE, the growth estimate is -0.23.

On to LRGGRPVSTRYVVYTGDRLA, for which the growth estimate was < -0.25.

Regarding FRGNEH, the growth estimate was < -0.25.

As to AFHAT, the growth estimate is < -0.25.

In the case of RRTVTVGQLVSVDSAILSCL, the growth estimate is < -0.25.

With FRGLSGIRPLTE, the growth estimate was < -0.25.

Regarding LSWLLP, the growth estimate is < -0.25.

Consider GCRASLKLENVVFRRVVSIE, for which the growth estimate was < -0.25.

Take ALRHFMISYNTILKLFRR: the growth estimate is < -0.25.

In the case of ASHGTYSSGI, the growth estimate was -0.229.

For GGPSIYSWLRAYDAFWRSNP, the growth estimate was < -0.25.

Regarding RKRVMRGARDG, the growth estimate was < -0.25.

DYCERRCLNRMETN: the growth estimate is < -0.25.

For the substance VLIFRRRL, the growth estimate was < -0.25.

For ALDGMPVYKPLKARTSAR, the growth estimate was < -0.25.

As for ISLSGTIRGVVTTGRLVRQG, the growth estimate is < -0.25.

With CVVSTSYSRHAGRRQFQIVM, the growth estimate was < -0.25.

With RYGCWEHHTKFVGMPFVLDR, the growth estimate is < -0.25.

Consider RTIPGRYCRRTRKSDSKTRR, for which the growth estimate was < -0.25.

For the substance SMLDVGRPRAKR, the growth estimate was < -0.25.

Take LPLNFQTYWSKETSFKFVSA: the growth estimate was < -0.25.

For IRCA, the growth estimate was < -0.25.

As to TETRT, the growth estimate is < -0.25.

Take TEGSWHQVRIPVSTVDVQVG: the growth estimate was < -0.25.

Consider HMGQHCDPGVTSFFFSIGGV, for which the growth estimate is < -0.25.

YVWLRKVLYRSLHIFGRNRV: the growth estimate was -0.192.

LGVSLRLLSAGWVHCLANRP: the growth estimate was < -0.25.

As to NDRLCRAESPRSEQEFSGKR, the growth estimate was < -0.25.

In the case of PPSLRPGVQNAVRLEFAWLP, the growth estimate was < -0.25.

Regarding GGDLQQLGRIPTKYFDNEDS, the growth estimate is < -0.25.

Take ALSIPIRWKDLGSETSSRNF: the growth estimate is < -0.25.

With WCGPATVRKIMQAVIPRQEA, the growth estimate is < -0.25.

For RTWNPVMCVKTTCVYGFGGP, the growth estimate is < -0.25.

On to VWTTRINWYFARCHQIISTP, for which the growth estimate was < -0.25.

On to HPTDSKGCRCAPQDGGLAH, for which the growth estimate is < -0.25.

YGESPRKGR: the growth estimate was < -0.25.

As to DPS, the growth estimate is < -0.25.

Take SHPTAST: the growth estimate is < -0.25.

Turning to SETGTD, the growth estimate was < -0.25.

In the case of FSRSALWSQECSMS, the growth estimate was < -0.25.

Regarding VGRPWRRAGSANTPRRPIRS, the growth estimate is < -0.25.

Regarding HVYTRMTQTIGGLVAECGRA, the growth estimate was < -0.25.

In the case of EYFNNRNSFRDLLVLSKWLS, the growth estimate was < -0.25.

With GAGFGIS, the growth estimate is < -0.25.

In the case of KYRRWCPLFSLLTDNLN, the growth estimate is < -0.25.

GQDHIHWFRSQSGGTSHEQS: the growth estimate is < -0.25.

KFRPV: the growth estimate is -0.18.

Turning to RQLCNSRGP, the growth estimate is < -0.25.

With VHSAATPGLS, the growth estimate is < -0.25.

As for LSNPSLLDHLAPNLMVYLRP, the growth estimate was < -0.25.

Regarding RGSMLNVASAISDEAILP, the growth estimate was < -0.25.

Turning to GGQC, the growth estimate is < -0.25.

Regarding GTRYAHTR, the growth estimate was < -0.25.

With RATRWGSPYVFE, the growth estimate was < -0.25.

For LDIAFLATGTAENCGCPHQI, the growth estimate is < -0.25.

In the case of TSHAAAQANVVMPFAQAVSN, the growth estimate was < -0.25.

In the case of SSVSELRTGWNIRVTANTQT, the growth estimate is < -0.25.

In the case of CVKDYRVYCRD, the growth estimate was < -0.25.

For TLTEHATSKEQHAVRLEWSS, the growth estimate was < -0.25.

Turning to FHVNEFAVDLVRDY, the growth estimate is < -0.25.

GGTASACITTVRG: the growth estimate was < -0.25.

For the substance TVVGSFISPGPRYGSTCRRE, the growth estimate is -0.246.

Regarding SRILV, the growth estimate is < -0.25.

As for CLDTSDVFVGAIQNSS, the growth estimate was < -0.25.

TGTAGISAETS: the growth estimate was < -0.25.

On to YDKAVCRIGGRWCQWGPPYQ, for which the growth estimate was < -0.25.

Turning to VLINDRVVYTVIPAGRSASA, the growth estimate was < -0.25.

As to GHNTADRSGSKQETRRWYSL, the growth estimate is -0.181.

Regarding GGTPNFFSSWSVKSTTTQFE, the growth estimate is < -0.25.

Regarding RRNSGRTR, the growth estimate was < -0.25.

With GKPLGPCSS, the growth estimate was < -0.25.

In the case of DTAGSRVC, the growth estimate was < -0.25.

On to FSPWSRSPKPKIVTT, for which the growth estimate was < -0.25.

As to QQMIHQTEGVTGSGLRARNG, the growth estimate is < -0.25.

NGESVSDKLKVLRFTGAQQA: the growth estimate was < -0.25.

In the case of ECCELSNRE, the growth estimate was < -0.25.

Take LTDEATQIFRWQS: the growth estimate was < -0.25.

GVSRVRSGKRAAVTARYVCH: the growth estimate is < -0.25.

For the substance CNELRASRGRA, the growth estimate is < -0.25.

For YLERQDDAQRGCVPRIVRVP, the growth estimate is < -0.25.

For GTCDAACGLFTPHFRSMCLG, the growth estimate is < -0.25.

With LHCHHTQWFTLSKGQIDVHH, the growth estimate is < -0.25.

VYRCS: the growth estimate is -0.187.

As for CKK, the growth estimate was < -0.25.

As for TELNM, the growth estimate was < -0.25.

Turning to TGCITWNVRAQVPRSRDSFW, the growth estimate was < -0.25.

With VNDPHGSHRFVPP, the growth estimate is < -0.25.

As for LPVGVSEGSPILTSLYRPGV, the growth estimate was -0.245.

Turning to LYRLEVY, the growth estimate was < -0.25.

Consider KQGDRYCGVWYGIWCYFFIG, for which the growth estimate was < -0.25.

With YPASASPDTPAGAAN, the growth estimate is < -0.25.

For the substance LVFLSNGPRK, the growth estimate was < -0.25.

GHPIASL: the growth estimate was < -0.25.

Take QFGCPIFVQTG: the growth estimate is < -0.25.

Consider LESYS, for which the growth estimate is < -0.25.

For the substance GSLG, the growth estimate is < -0.25.

Turning to HFQV, the growth estimate is < -0.25.

As for SLDNRLSPVNL, the growth estimate was < -0.25.

For LGRECAG, the growth estimate was < -0.25.

Consider SMTLR, for which the growth estimate was < -0.25.

Take QRDLTLWTPY: the growth estimate is < -0.25.

SFCLSGRALHLSTGLDKRGR: the growth estimate is < -0.25.

Take TGLSISGLIL: the growth estimate is < -0.25.

Regarding TIESSVRPSASDAITANSTS, the growth estimate is < -0.25.

For the substance MLLPHKLRGRTVGRRLAVPP, the growth estimate is < -0.25.

Take VASK: the growth estimate is < -0.25.

With GGVAYDFD, the growth estimate was < -0.25.

With PLLASLQRASLGCQFRTVRY, the growth estimate was < -0.25.

In the case of CQKWFCLN, the growth estimate is < -0.25.

Regarding CHVESKGTR, the growth estimate was < -0.25.

With PDKSGGNRGRDAYDLEHTCG, the growth estimate is < -0.25.

With DWFPYVAGDMAQRWAVVCLA, the growth estimate is < -0.25.

For KPLIWWFTVLPNKWIRCFLS, the growth estimate was < -0.25.

For ESLDNGDGIPRGLSREIG, the growth estimate is < -0.25.
